{"sequences": {"note": "Sequences of proteins named here, by UniProt entry; tags and fusion partners are left off. A change or cut given only in a name is not applied to a line headed by its entry.", "UniProt Q62280": "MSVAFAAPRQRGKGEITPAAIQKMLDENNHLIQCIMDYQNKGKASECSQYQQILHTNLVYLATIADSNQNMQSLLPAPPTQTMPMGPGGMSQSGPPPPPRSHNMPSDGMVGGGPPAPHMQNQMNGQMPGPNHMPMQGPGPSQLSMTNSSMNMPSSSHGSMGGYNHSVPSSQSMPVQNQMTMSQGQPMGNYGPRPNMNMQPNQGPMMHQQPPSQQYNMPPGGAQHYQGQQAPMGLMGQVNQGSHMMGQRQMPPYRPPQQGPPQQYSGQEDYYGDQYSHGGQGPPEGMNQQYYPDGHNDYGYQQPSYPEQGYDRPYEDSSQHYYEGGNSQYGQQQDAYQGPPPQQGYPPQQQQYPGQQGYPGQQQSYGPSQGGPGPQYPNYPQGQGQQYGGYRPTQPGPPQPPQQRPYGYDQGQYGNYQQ", "UniProt Q6P9Z1": "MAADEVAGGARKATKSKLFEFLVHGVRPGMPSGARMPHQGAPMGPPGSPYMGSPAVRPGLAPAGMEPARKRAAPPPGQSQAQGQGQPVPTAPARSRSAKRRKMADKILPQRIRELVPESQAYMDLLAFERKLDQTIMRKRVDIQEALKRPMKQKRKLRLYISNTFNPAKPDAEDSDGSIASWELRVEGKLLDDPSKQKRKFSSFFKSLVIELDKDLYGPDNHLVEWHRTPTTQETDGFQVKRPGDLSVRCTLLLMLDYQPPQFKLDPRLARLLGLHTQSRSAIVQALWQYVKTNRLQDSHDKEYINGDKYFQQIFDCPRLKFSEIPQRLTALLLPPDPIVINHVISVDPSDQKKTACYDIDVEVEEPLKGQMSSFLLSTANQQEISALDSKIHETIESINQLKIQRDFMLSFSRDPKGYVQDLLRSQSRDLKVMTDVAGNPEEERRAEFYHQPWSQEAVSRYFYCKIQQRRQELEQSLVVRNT", "UniProt O54941": "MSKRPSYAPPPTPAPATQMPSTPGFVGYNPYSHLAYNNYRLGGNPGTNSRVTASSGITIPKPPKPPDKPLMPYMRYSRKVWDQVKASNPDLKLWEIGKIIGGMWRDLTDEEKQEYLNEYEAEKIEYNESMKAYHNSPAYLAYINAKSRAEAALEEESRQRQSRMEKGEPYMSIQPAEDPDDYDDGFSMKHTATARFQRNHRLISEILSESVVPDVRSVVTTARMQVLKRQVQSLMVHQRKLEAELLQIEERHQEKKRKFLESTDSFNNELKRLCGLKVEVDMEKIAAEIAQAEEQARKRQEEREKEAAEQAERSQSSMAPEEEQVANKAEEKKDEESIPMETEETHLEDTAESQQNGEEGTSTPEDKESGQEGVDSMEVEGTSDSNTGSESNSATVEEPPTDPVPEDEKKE", "UniProt E9Q4N7": "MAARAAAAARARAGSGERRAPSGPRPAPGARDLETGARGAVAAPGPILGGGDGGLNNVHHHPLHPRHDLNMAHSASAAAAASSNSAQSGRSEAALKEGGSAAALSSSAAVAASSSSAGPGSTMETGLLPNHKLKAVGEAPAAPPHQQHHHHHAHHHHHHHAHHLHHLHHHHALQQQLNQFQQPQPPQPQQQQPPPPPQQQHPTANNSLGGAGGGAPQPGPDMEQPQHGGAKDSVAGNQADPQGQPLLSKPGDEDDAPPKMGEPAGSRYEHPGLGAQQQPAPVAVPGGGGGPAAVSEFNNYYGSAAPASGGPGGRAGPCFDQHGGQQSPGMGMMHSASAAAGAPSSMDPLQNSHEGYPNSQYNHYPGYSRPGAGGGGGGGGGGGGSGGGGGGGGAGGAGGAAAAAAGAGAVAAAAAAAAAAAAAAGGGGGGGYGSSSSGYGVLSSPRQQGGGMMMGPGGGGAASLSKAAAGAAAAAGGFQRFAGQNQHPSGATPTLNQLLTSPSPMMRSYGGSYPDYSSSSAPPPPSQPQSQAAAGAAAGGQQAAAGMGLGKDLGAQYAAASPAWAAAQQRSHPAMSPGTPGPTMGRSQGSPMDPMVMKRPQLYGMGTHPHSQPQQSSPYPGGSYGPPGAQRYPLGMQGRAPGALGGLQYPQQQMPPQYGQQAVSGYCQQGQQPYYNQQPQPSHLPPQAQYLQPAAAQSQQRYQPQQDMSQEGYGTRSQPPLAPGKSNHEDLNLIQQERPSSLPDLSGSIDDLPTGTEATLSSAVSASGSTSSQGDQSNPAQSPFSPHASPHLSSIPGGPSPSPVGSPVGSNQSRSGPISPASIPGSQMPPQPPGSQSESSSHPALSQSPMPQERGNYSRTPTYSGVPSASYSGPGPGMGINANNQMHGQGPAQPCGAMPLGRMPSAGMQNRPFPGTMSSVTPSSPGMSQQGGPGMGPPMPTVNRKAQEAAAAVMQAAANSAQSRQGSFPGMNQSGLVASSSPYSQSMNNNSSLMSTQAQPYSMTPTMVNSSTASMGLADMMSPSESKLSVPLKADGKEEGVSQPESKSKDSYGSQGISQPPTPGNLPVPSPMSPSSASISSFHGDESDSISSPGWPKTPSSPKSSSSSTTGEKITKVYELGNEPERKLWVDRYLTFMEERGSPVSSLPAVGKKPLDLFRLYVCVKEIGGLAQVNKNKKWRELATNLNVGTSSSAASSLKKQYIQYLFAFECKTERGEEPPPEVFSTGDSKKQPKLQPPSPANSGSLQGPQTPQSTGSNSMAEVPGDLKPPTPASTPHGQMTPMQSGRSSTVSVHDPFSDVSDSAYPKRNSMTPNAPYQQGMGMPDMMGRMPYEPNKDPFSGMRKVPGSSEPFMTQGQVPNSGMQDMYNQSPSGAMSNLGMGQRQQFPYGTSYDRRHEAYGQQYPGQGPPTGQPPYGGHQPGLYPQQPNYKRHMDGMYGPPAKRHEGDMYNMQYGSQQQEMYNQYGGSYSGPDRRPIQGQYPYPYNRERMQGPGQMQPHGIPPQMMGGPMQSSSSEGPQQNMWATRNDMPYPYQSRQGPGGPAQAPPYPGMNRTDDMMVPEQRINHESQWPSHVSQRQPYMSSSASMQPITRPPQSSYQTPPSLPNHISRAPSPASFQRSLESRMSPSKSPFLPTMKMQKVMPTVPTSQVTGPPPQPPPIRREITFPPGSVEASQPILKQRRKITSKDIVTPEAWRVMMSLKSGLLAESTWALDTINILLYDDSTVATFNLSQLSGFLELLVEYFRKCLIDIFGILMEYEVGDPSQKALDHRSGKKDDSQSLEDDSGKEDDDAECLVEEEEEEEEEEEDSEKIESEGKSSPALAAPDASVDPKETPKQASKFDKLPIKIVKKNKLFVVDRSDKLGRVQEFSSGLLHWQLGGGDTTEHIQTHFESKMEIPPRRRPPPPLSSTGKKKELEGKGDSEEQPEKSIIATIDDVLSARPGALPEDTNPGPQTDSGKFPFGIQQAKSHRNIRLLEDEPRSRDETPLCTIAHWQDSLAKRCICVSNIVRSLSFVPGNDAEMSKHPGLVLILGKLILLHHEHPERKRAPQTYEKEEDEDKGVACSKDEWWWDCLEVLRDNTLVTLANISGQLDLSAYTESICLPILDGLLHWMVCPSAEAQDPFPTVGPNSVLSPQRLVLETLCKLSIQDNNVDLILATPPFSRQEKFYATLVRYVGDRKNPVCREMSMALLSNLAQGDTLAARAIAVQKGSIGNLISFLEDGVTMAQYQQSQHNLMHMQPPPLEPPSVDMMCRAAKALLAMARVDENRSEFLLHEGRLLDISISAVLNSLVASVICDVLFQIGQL", "UniProt Q61466": "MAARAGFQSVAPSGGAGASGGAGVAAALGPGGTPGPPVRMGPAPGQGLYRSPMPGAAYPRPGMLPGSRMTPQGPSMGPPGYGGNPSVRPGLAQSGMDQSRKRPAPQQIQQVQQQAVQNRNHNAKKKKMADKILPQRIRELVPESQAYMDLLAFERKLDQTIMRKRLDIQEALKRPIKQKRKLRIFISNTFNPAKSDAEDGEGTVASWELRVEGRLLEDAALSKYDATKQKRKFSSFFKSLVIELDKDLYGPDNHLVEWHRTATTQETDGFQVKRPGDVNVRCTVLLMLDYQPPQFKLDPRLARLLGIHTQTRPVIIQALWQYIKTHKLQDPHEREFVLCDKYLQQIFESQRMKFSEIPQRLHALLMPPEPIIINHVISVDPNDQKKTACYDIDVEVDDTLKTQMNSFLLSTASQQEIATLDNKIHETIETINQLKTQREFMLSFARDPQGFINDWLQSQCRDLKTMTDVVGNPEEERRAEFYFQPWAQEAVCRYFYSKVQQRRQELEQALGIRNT", "UniProt A2BH40": "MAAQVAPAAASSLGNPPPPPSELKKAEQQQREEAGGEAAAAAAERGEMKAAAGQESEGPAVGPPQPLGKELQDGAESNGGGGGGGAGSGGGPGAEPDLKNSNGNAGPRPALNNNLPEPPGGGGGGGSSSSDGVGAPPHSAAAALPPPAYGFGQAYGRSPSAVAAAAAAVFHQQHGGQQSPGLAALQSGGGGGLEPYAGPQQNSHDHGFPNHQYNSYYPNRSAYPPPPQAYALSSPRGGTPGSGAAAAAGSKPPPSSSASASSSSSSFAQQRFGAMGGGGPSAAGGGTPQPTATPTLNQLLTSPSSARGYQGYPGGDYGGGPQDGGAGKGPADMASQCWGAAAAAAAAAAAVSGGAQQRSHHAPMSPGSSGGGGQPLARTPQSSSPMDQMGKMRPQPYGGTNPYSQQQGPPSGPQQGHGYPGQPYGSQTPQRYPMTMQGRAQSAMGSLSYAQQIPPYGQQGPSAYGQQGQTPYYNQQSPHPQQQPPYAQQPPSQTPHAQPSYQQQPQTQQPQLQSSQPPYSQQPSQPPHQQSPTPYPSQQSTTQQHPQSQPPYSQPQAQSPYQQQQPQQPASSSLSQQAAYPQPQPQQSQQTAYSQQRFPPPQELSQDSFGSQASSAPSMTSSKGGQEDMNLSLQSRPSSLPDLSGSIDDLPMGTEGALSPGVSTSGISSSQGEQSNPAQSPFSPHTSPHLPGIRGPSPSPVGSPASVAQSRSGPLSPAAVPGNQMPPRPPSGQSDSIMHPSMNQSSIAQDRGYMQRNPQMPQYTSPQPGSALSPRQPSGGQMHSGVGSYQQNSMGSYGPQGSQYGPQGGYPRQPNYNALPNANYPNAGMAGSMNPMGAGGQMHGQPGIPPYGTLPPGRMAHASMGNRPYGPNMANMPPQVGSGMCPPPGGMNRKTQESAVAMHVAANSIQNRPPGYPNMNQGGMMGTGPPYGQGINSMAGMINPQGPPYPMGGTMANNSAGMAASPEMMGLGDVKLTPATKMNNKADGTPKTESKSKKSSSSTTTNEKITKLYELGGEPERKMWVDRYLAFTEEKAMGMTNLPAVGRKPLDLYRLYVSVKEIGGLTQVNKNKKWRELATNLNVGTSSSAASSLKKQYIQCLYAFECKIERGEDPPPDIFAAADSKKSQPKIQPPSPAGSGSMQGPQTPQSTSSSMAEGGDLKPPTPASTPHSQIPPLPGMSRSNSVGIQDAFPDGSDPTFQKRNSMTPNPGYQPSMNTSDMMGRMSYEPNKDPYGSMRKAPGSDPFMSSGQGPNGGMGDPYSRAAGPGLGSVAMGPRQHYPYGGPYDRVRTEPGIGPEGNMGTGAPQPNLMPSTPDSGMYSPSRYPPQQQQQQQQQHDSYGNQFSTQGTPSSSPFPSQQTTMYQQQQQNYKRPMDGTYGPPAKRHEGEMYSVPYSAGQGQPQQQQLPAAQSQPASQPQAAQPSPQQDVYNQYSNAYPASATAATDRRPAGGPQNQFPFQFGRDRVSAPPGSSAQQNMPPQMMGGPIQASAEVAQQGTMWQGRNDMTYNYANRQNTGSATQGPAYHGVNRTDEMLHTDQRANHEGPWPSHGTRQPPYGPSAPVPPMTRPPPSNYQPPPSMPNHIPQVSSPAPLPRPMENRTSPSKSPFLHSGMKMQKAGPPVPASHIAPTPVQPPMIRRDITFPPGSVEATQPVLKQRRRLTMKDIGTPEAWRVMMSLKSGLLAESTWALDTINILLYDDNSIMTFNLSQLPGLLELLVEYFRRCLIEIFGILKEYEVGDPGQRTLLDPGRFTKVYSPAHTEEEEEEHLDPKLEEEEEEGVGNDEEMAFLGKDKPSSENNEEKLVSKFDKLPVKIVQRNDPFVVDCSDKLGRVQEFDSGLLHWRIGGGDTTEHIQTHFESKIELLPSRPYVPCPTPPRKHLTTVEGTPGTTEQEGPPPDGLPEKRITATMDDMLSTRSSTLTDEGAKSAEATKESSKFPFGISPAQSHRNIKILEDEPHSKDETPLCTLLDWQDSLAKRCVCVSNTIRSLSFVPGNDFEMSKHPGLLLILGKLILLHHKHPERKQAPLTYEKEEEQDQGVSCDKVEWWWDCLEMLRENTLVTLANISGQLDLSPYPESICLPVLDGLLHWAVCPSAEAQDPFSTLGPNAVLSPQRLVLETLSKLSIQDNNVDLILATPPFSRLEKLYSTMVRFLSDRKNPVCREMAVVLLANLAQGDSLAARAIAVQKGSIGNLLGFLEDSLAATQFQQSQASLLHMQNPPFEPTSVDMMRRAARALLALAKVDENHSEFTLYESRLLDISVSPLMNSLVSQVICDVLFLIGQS"}, "source": "paper PMC11266670", "molecules": {"B1": {"name": "BRD7 (protein, UniProt O88665 1-651)", "chain": "MGKKHKKHKSDRHFYEEYVEKPLKLVLKVGGSEVTELSTGSSGHDSSLFEDRSDHDKHKDRKRKKRKKGEKQAPGEEKGRKRRRVKEDKKKRDRDRAENEVDRDLQCHVPIRLDLPPEKPLTSSLAKQEEVEQTPLQEALNQLMRQLQRKDPSAFFSFPVTDFIAPGYSMIIKHPMDFSTMKEKIKNNDYQSIEELKDNFKLMCTNAMIYNKPETIYYKAAKKLLHSGMKILSQERIQSLKQSIDFMSDLQKTRKQKERTDACQSGEDSGCWQREREDSGDAETQAFRSPAKDNKRKDKDVLEDKWRSSNSEREHEQIERVVQESGGKLTRRLANSQCEFERRKPDGTTTLGLLHPVDPIVGEPGYCPVRLGMTTGRLQSGVNTLQGFKEDKRNRVTPVLYLNYGPYSSYAPHYDSTFANISKDDSDLIYSTYGEDSDLPNNFSISEFLATCQDYPYVMADSLLDVLTKGGHSRSLQDLDMSSPEDEGQTRALDTAKEAEITQIEPTGRLESSSQDRLTALQAVTTFGAPAEVFDSEEAEVFQRKLDETTRLLRELQEAQNERLSTRPPPNMICLLGPSYREMYLAEQVTNNLKELTQQVTPGDVVSIHGVRKAMGISVPSPIVGNSFVDLTGECEEPKETSTAECGPDAS"}, "B2": {"name": "PHF10 (protein, UniProt Q9D8M7 1-497)", "chain": "MTAAGPGAAPSPGRCDSDPASPGAQSPKDDNEDNSNDGTHPCKRRRMGSGDSSRSCETSSQDLSFSYYPAENLIEYKWPPDETGEYYMLQEQVSEYLGVTSFKRKYPDLERRDLSHKEKLYLRELNVITETQCTLGLTALRSDEVIDLMIKEYPAKHAEYSVILQEKERQRITDHYKEYSQMQQQSTQKVEASKVPEYIKKAAKKAAEFNSNLNRERMEERRAYFDLQTHVIQVPQGKYKVLPTDRTKVSSYPVALIPGQFQEYYKRYSPDELRYLPLNTALYEPPLDPELPALDSDGDSDDGEDGGGDEKRKNKGTSDSSSGNVSEGDSPPDSQEDTFHGRQKSKDKMATPRKDGSKRSVLSKSAPGYKPKVIPNALCGICLKGKESNKKGKAESLIHCSQCDNSGHPSCLDMTMELVSMIKTYPWQCMECKTCIICGQPHHEEEMMFCDVCDRGYHTFCVGLGAIPSGRWICDCCQRAPPTPRKVGRRGKNSKEG"}}, "note": "Results are given in words; binding and its absence hold for the method and conditions named. Binding seen in cells or lysates may run through a third protein. Here binding means that the protein was enriched with, or labelled near, the bait; the list need not be complete. No binding means not detected with the bait."}
{"molecular_target": "Nanog^BiD (UniProt Q62280)", "assay": "affinity purification with mass spectrometry; FLAG pull-down from MEFs reprogramming with Nanog^BiD or Nanog^WT plus Oct4 for 1 day, two replicates; label-free quantification (MaxQuant, DEP); differential analysis Nanog^BiD against Nanog^WT"}
{"molecule": "SMARCD3 (from UniProt Q6P9Z1 1-483)", "binding": "binds"}
{"molecule": "SMARCE1 (from UniProt O54941 1-411)", "binding": "binds"}
{"molecule": "GLTSCR1 (from UniProt F8VPZ9 1-1578)", "binding": "no binding"}
{"molecule": "SMARCC1 (from UniProt P97496 1-1104)", "binding": "binds"}
{"molecule": "PBRM1 (from UniProt Q8BSQ9 1-1634)", "binding": "no binding"}
{"molecule": "ARID1B (from UniProt E9Q4N7 1-2306)", "binding": "binds"}
{"molecule": "SMARCD1 (from UniProt Q61466 1-515)", "binding": "binds"}
{"molecule": "ARID1A (from UniProt A2BH40 1-2283)", "binding": "binds"}
{"molecule": "B1", "binding": "no binding"}
{"molecule": "B2", "binding": "no binding"}
